This is one part of the list.
Tests used:
Experiment in all cases: log2 fold change, soluble protein after heating vs DMSO (PISA); higher = thermal stabilisation; K562 cells, 10 uM, 30 min; active = over 0.2 and 3.5 SD of the protein, either way, in both replicates (recomputed)
saracatinib = compound: CN1CCN(CCOc2cc(OC3CCOCC3)c3c(Nc4c(Cl)ccc5c4OCO5)ncnc3c2)CC1 [saracatinib]
In short: (§1)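 K562 cells at 2×10^6 cells/mL were given 10 μM compound for 30 min. Aliquots then went through 3 min of heating across 48°C-58°C, were pooled, and were extracted in PBS with 0.5% NP-40 at 4°C, and the supernatant after 21,000xg for 90 min was quantified by TMTpro 16plex LC-MS/MS with channel sums equalised. Thermal stability relative to control samples, from duplicates, is given as log2 fold change.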

The chains behind the UniProt entries cited, without tags or fusion partners. Where a name states a change or a piece, a line headed by the entry shows the natural chain unless it says otherwise.
UniProt Q8N4H5: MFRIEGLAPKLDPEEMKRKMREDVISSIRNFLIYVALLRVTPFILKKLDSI
UniProt Q629K1: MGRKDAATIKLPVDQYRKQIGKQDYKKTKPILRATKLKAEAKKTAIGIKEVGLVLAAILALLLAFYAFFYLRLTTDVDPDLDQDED
UniProt Q15642: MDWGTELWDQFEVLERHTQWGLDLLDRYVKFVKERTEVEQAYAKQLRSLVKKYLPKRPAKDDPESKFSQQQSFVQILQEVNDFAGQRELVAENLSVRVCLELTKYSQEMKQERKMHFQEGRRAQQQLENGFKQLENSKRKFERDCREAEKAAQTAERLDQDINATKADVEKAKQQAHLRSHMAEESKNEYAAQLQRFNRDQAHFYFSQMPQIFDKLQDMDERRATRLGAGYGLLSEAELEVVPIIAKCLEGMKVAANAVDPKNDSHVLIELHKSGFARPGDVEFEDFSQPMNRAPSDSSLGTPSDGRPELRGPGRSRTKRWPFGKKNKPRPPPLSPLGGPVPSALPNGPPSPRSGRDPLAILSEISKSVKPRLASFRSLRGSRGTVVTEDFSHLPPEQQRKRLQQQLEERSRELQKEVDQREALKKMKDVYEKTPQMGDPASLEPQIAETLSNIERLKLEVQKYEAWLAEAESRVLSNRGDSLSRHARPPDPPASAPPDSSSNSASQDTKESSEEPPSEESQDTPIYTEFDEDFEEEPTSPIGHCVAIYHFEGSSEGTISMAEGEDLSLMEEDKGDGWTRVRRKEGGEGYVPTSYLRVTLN
UniProt Q9Y2L5: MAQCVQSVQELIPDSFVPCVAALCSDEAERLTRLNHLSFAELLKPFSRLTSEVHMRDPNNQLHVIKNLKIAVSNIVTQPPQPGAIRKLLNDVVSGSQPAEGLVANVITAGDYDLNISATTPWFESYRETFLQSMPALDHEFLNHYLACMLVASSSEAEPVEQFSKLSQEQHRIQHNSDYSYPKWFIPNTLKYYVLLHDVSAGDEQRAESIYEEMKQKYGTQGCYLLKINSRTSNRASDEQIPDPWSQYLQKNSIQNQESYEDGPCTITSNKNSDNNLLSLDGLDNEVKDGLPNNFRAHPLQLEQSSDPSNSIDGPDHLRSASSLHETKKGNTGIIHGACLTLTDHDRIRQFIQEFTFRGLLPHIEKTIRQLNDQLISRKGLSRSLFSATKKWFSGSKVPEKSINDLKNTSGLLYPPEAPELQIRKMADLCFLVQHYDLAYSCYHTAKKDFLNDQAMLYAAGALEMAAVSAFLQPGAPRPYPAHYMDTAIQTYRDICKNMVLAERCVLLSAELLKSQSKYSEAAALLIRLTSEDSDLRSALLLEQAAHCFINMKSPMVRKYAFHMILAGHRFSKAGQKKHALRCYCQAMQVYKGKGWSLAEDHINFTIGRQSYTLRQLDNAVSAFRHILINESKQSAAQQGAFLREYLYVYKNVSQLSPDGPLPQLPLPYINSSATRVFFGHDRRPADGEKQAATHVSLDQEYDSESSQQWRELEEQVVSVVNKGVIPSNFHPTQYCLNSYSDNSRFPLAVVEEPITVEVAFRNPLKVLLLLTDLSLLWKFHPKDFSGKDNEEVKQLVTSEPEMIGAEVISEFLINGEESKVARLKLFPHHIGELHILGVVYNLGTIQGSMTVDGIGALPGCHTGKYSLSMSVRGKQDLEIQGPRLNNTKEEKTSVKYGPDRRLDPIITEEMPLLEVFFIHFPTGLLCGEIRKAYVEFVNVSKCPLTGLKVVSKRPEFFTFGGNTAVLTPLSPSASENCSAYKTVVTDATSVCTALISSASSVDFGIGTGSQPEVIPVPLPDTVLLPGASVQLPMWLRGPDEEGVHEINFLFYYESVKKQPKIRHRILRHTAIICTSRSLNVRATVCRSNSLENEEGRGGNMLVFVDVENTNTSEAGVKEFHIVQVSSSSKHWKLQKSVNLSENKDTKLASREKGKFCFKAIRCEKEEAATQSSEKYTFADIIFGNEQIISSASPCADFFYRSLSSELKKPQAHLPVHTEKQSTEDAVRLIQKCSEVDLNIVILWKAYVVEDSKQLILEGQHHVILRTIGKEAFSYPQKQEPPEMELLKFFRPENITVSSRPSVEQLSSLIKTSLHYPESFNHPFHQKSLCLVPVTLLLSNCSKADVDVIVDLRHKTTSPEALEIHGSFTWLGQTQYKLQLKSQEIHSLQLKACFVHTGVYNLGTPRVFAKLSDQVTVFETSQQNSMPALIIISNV
UniProt Q8TEL6: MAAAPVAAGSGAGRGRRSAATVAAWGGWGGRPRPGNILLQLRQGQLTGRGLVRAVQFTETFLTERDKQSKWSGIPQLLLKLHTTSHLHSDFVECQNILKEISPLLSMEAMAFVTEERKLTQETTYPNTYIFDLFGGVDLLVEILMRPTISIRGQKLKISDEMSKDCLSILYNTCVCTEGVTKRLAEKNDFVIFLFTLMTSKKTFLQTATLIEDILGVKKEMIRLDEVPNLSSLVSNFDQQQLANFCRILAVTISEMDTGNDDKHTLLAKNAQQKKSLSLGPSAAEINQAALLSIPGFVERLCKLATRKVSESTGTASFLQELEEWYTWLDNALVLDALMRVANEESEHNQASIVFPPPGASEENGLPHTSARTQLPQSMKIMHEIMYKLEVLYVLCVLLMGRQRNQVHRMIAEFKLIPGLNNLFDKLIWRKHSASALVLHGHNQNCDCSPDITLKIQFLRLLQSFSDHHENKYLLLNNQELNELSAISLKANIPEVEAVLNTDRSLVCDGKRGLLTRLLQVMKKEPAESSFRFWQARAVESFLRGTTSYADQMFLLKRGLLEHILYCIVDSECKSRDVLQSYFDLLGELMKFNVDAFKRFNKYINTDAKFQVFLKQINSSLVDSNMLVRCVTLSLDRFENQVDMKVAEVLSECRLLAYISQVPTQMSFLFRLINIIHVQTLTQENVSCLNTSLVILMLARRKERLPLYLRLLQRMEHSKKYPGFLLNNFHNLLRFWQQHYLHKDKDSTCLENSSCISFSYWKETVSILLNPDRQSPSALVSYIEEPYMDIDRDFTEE
UniProt O95900: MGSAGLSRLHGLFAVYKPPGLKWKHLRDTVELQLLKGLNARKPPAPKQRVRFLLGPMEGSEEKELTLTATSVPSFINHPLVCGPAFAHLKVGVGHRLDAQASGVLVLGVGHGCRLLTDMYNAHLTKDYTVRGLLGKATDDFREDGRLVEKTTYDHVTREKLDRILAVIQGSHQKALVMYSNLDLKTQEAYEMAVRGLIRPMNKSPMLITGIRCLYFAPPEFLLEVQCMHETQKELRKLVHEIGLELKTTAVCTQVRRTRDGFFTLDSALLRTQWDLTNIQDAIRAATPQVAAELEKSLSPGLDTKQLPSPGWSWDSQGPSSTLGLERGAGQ
UniProt Q96FX7: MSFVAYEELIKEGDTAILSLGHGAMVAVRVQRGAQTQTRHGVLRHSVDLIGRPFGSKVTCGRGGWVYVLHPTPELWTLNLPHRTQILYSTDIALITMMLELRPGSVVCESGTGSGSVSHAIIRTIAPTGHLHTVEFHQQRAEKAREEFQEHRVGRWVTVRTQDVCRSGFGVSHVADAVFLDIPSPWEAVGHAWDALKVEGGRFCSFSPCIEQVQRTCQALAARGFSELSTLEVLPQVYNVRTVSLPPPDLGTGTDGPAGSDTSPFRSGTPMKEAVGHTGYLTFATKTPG
UniProt P19474, whole entry, looked up: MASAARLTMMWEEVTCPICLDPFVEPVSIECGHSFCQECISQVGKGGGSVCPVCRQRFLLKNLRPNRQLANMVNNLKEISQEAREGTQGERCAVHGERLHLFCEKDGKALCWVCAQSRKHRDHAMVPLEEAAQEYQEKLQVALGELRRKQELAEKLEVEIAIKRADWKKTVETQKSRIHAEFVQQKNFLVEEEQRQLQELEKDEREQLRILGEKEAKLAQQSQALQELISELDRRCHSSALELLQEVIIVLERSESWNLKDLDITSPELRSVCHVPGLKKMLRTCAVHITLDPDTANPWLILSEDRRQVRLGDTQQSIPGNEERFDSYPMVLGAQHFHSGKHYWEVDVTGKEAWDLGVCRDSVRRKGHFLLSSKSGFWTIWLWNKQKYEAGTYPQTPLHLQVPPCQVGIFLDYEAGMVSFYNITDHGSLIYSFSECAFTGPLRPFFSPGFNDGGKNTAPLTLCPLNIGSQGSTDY
UniProt Q6PJ69: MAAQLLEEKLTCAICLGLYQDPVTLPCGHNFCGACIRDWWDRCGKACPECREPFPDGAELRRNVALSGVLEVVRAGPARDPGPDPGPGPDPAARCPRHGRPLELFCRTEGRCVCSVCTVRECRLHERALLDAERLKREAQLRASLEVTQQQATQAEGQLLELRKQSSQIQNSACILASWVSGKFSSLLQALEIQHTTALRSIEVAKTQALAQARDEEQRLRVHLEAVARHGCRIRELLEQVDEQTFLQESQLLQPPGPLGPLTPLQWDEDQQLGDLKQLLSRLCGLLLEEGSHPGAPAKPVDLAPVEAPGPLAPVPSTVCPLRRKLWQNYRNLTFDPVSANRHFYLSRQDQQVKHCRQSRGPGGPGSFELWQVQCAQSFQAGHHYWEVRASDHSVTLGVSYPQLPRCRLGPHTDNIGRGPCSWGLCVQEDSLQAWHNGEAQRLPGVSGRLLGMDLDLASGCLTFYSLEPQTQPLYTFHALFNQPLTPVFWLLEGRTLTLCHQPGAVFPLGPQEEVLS
UniProt Q96QT4: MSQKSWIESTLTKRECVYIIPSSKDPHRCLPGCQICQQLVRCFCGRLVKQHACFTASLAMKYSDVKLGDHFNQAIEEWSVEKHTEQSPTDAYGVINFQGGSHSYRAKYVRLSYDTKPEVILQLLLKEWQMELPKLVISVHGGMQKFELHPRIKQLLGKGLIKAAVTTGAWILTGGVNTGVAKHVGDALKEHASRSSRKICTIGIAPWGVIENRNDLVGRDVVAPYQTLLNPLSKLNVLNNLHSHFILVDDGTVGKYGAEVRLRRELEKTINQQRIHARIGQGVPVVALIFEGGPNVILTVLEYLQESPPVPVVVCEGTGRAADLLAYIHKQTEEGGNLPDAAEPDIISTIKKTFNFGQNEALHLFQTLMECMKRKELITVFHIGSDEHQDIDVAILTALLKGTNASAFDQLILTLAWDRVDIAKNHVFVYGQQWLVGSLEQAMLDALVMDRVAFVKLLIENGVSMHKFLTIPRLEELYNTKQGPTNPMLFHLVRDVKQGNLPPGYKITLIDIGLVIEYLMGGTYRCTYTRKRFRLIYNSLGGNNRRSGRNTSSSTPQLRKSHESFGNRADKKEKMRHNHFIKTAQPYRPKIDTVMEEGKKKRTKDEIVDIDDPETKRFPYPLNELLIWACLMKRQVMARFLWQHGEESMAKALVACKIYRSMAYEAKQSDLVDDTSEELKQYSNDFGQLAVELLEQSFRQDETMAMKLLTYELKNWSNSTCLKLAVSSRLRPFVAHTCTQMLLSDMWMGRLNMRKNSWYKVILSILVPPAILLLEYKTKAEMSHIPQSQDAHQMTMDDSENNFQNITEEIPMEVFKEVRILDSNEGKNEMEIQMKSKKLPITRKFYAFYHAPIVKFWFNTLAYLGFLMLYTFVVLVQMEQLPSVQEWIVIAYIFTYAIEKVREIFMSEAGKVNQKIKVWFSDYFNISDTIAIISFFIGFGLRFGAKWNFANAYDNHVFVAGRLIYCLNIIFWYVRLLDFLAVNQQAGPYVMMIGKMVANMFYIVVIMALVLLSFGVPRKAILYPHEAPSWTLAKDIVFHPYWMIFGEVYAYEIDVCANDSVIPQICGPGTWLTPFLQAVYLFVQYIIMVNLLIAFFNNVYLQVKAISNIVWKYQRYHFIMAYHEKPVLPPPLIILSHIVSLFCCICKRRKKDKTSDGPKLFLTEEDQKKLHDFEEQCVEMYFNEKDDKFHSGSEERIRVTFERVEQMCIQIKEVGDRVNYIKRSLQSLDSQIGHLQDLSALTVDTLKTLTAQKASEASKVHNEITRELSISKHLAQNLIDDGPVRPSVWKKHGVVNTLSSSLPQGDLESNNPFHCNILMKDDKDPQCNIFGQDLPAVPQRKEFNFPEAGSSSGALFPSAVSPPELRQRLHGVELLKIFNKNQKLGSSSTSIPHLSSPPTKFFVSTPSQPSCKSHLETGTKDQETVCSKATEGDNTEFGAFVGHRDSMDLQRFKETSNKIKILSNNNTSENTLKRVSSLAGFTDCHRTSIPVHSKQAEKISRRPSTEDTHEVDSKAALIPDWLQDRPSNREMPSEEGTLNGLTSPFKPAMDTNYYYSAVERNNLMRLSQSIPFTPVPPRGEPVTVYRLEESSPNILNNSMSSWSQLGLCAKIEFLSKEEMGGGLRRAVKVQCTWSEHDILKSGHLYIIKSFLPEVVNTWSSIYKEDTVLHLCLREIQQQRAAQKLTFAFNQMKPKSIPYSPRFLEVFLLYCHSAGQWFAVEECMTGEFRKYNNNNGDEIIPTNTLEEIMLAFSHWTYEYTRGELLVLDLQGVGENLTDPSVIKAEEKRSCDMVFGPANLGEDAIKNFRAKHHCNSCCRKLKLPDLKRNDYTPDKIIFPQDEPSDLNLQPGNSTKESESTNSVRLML

sotrastaurin = compound: CN1CCN(c2nc(C3=C(c4c[nH]c5ccccc45)C(=O)NC3=O)c3ccccc3n2)CC1 [sotrastaurin]
In short: as §1

Tubastatin A = compound: CN1CCc2c(c3ccccc3n2Cc2ccc(C(=O)NO)cc2)C1 [Tubastatin A]
In short: as §1

[1] = compound: CNC(=O)C1=CC=CC=C1NC2=NC(=NC=C2Cl)NC3=C(C=C(C=C3)N4CCOCC4)OC
In short: as §1

defactinib = compound: CNC(=O)c1ccc(Nc2ncc(C(F)(F)F)c(NCc3nccnc3N(C)S(C)(=O)=O)n2)cc1 [defactinib]
In short: as §1

rucaparib = compound: CNCc1ccc(-c2[nH]c3cc(F)cc4c3c2CCNC4=O)cc1 [rucaparib]
In short: as §1

[2] = compound: CNc1nc(-c2ccc3c(N)n[nH]c3c2)cc(N2C[C@@H](C(=O)NC3CCCCC3)CC[C@H]2C)n1
In short: as §1

encorafenib = compound: COC(=O)N[C@@H](C)CNc1nccc(-c2cn(C(C)C)nc2-c2cc(Cl)cc(NS(C)(=O)=O)c2F)n1 [encorafenib]
In short: as §1

[3] = compound: COC(=O)[C@H](CCSC)NC(=O)C1=C(C=C(C=C1)NC[C@H](CS)N)C2=CC=CC=C2
In short: as §1

[4] = compound: COC1=CC=C(C=C1)CN2C=CC3=C2C=C(C=C3)C(=O)NO
In short: as §1

filanesib = compound: CON(C)C(=O)N1N=C(c2cc(F)ccc2F)S[C@@]1(CCCN)c1ccccc1 [filanesib]
In short: as §1

zotarolimus = compound: CO[C@H]1C[C@@H]2CC[C@@H](C)[C@@](O)(O2)C(=O)C(=O)N2CCCC[C@H]2C(=O)O[C@H]([C@H](C)C[C@@H]2CC[C@H](n3cnnn3)[C@H](OC)C2)CC(=O)[C@H](C)/C=C(\C)[C@@H](O)[C@@H](OC)C(=O)[C@H](C)C[C@H](C)/C=C/C=C/C=C/1C [zotarolimus]
In short: as §1

idasanutlin = compound: COc1cc(C(=O)O)ccc1NC(=O)[C@@H]1N[C@@H](CC(C)(C)C)[C@](C#N)(c2ccc(Cl)cc2F)[C@H]1c1cccc(Cl)c1F [idasanutlin]
In short: as §1

alisertib = compound: COc1cc(Nc2ncc3c(n2)-c2ccc(Cl)cc2C(c2c(F)cccc2OC)=NC3)ccc1C(=O)O [alisertib]
In short: as §1

[5] = compound: COc1cc2nc(-c3cc(F)ccc3O)nc(N[C@@H]3CNC[C@H]3C(C)(C)O)c2cc1OC
In short: as §1

gefitinib = compound: COc1cc2ncnc(Nc3ccc(F)c(Cl)c3)c2cc1OCCCN1CCOCC1 [gefitinib]
In short: as §1

[6] = compound: COc1cccc2cc(-c3nc([C@H]4CC[C@H](C(=O)O)CC4)n4ncnc(N)c34)[nH]c12
In short: as §1

lapatinib = compound: CS(=O)(=O)CCNCc1ccc(-c2ccc3ncnc(Nc4ccc(OCc5cccc(F)c5)c(Cl)c4)c3c2)o1 [lapatinib]
In short: as §1

pictilisib = compound: CS(=O)(=O)N1CCN(Cc2cc3nc(-c4cccc5[nH]ncc45)nc(N4CCOCC4)c3s2)CC1 [pictilisib]
In short: as §1

alvocidib = compound: CN1CC[C@H](c2c(O)cc(O)c3c(=O)cc(-c4ccccc4Cl)oc23)[C@H](O)C1 [alvocidib]
In short: as §1

Measured: log2 fold change

TOMM5 isoform 2 (UniProt Q8N4H5)
inactive: saracatinib -0.033 | sotrastaurin 0.064 | Tubastatin A 0.027 | [1] 0.059 | defactinib 0.01 | rucaparib -0.033 | [2] -0.031 | encorafenib -0.036 | [3] 0.049 | [4] -0.027 | filanesib 0.079 | zotarolimus 0.045 | idasanutlin 0.137 | alisertib -0.141 | [5] -0.021 | gefitinib 0.073 | [6] 0.044 | lapatinib -0.016 | pictilisib -0.086

TRIQK (UniProt Q629K1)
inactive: saracatinib -0.014 | sotrastaurin -0.112 | Tubastatin A -0.094 | [2] -0.045 | [4] -0.002 | filanesib 0.1 | zotarolimus -0.08 | alisertib -0.142 | [6] 0.106

TRIP10 (UniProt Q15642)
inactive: saracatinib 0.036 | sotrastaurin -0.014 | Tubastatin A 0 | [1] 0.027 | defactinib -0.029 | rucaparib 0.006 | [2] 0.046 | encorafenib 0.038 | [3] -0.005 | [4] 0.054 | filanesib 0.01 | zotarolimus -0.007 | idasanutlin -0.061 | alisertib -0.026 | [5] 0.083 | gefitinib -0.014 | [6] -0.04 | lapatinib 0.021 | pictilisib 0.033

TRAPPC8 (UniProt Q9Y2L5)
inactive: saracatinib -0.017 | sotrastaurin -0.044 | Tubastatin A -0.004 | [1] 0.014 | defactinib -0.104 | rucaparib 0.074 | [2] 0.008 | encorafenib 0.032 | [3] -0.032 | [4] 0.032 | filanesib -0.017 | zotarolimus 0.03 | idasanutlin -0.059 | alisertib 0.003 | [5] 0.013 | gefitinib 0.009 | [6] -0.021 | lapatinib 0.021 | pictilisib -0.001

TRPC4AP (UniProt Q8TEL6)
inactive: saracatinib -0.052 | sotrastaurin -0.063 | Tubastatin A 0.033 | [1] -0.097 | defactinib -0.016 | [2] 0.05 | [3] 0.006 | [4] 0.014 | filanesib 0.062 | idasanutlin 0.032 | alisertib -0.172 | [5] -0.043 | gefitinib 0.271 | [6] 0.053 | lapatinib 0.08 | pictilisib -0.042

TRUB2 (UniProt O95900)
inactive: saracatinib -0.037 | sotrastaurin 0.083 | [1] 0.04 | [2] -0.064 | [4] -0.171 | filanesib 0.061 | [5] -0.195 | lapatinib 0.096 | pictilisib -0.144

TRMT61A (UniProt Q96FX7)
inactive: saracatinib -0.018 | sotrastaurin -0.002 | Tubastatin A 0.08 | [1] -0.038 | defactinib 0.138 | rucaparib 0.286 | [2] 0.02 | encorafenib -0.03 | [3] 0.039 | [4] 0.083 | filanesib 0.136 | zotarolimus 0.077 | idasanutlin 0.025 | alisertib -0.017 | [5] -0.192 | gefitinib -0.051 | [6] -0.057 | lapatinib 0.03 | pictilisib -0.18

TRIM21 (UniProt P19474)
inactive: saracatinib -0.043 | alvocidib -0.077 | Tubastatin A 0.057 | [1] -0.004 | [2] 0.022 | zotarolimus -0.11 | idasanutlin -0.196 | alisertib -0.068 | [5] 0.007 | gefitinib -0.01 | [6] 0.094 | lapatinib -0.034

TRIM65 (UniProt Q6PJ69)
inactive: saracatinib -0.249 | alvocidib 0.009 | defactinib -0.343 | rucaparib -0.011 | [2] 0.138 | encorafenib -0.045 | [3] 0.036 | [4] -0.117 | zotarolimus -0.077

TRPM7 (UniProt Q96QT4)
inactive: saracatinib 0.036 | alvocidib 0.003 | Tubastatin A 0.036 | [1] 0.07 | defactinib -0.119 | rucaparib 0.173 | [2] 0.117 | encorafenib -0.025 | [3] -0.108 | [4] -0.028 | zotarolimus -0.075 | idasanutlin 0.153 | alisertib -0.154 | [5] -0.098 | [6] -0.081 | lapatinib 0.087 | pictilisib 0.033

Copied from the results shown (two entries):
TRAPPC8 (UniProt Q9Y2L5)
inactive: saracatinib -0.017 | sotrastaurin -0.044 | Tubastatin A -0.004 | [1] 0.014 | defactinib -0.104 | rucaparib 0.074 | [2] 0.008 | encorafenib 0.032 | [3] -0.032 | [4] 0.032 | filanesib -0.017 | zotarolimus 0.03 | idasanutlin -0.059 | alisertib 0.003 | [5] 0.013 | gefitinib 0.009 | [6] -0.021 | lapatinib 0.021 | pictilisib -0.001

TRPC4AP (UniProt Q8TEL6)
inactive: saracatinib -0.052 | sotrastaurin -0.063 | Tubastatin A 0.033 | [1] -0.097 | defactinib -0.016 | [2] 0.05 | [3] 0.006 | [4] 0.014 | filanesib 0.062 | idasanutlin 0.032 | alisertib -0.172 | [5] -0.043 | gefitinib 0.271 | [6] 0.053 | lapatinib 0.08 | pictilisib -0.042

From the supplement of paper PMC10849652
